The target of this experiment is T1, Photoactive yellow protein from Halorhodospira halophila (Hh-PYP) (Halorhodospira halophila) (UniProt P16113).
T1 sequence (chain, chromophore, p-coumaric acid): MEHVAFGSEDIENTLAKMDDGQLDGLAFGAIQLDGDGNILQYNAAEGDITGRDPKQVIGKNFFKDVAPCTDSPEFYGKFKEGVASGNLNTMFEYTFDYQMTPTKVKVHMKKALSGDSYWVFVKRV
Kind of experiment: transient grating.

No constants are given. Whether binding was seen depends on the method and setting.

Take “PYP-binding protein (PBP) from Rhodobacter capsulatus (from UniProt D5AR21)”: the binding entry is “no binding”.

The values above are taken from doi:10.1101/2021.06.01.446672.
